In PMC11873123:
Results are given in words; binding and its absence hold for the method and conditions named. Binding seen in cells or lysates may run through a third protein. Some entries that bind do so weakly or less than the wild type. For some of these results: Sequences can lack the tags named with a protein.

Assays:
[1] = molecular target: T1, PPTC7, ectopically overexpressed (Fig. 1C, D) (UniProt Q8NI37); test: co-IP; anti-FLAG antibody, 293T cells transfected with indicated plasmids, exogenous partners; Western blot (Fig. 1C, D)
T1 sequence: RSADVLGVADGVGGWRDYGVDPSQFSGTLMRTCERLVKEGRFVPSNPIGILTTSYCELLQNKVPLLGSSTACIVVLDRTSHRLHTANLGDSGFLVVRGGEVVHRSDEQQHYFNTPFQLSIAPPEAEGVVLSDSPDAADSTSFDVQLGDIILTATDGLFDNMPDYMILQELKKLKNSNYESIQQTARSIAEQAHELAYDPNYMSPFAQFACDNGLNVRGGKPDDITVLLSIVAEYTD

[2] = molecular target: T2, FLAG-FBXL4 (UniProt Q9UKA2); test: co-IP; anti-FLAG antibody, 293T cells transfected with a FLAG-tagged bait; endogenous partners detected by Western blot (Fig. 1E, F, 2K)
T2 sequence: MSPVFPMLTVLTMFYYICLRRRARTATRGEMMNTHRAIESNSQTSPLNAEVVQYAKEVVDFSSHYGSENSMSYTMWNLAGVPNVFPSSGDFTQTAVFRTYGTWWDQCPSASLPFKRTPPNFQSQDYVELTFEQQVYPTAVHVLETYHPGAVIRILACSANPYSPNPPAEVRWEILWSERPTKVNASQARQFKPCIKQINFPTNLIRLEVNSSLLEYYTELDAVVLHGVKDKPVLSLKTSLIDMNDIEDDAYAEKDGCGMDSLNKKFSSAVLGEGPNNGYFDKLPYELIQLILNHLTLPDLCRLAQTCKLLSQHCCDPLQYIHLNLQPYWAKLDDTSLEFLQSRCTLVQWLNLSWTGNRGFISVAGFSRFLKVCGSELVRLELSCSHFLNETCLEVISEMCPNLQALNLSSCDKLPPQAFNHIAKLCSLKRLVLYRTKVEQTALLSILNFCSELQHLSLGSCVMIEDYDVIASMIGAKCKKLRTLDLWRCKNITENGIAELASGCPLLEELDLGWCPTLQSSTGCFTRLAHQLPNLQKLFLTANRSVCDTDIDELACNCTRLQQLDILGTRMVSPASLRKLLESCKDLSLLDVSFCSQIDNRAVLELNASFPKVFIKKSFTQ

[3] = molecular target: T3, PPTC7-WT-FLAG (UniProt Q8NI37); test: as above
T3 sequence: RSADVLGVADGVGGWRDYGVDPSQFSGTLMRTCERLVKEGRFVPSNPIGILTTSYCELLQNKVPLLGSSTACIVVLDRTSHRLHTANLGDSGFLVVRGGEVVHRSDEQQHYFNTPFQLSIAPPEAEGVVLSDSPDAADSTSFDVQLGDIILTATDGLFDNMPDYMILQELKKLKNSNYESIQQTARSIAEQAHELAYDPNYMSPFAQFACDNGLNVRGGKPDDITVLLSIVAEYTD

| Binder | binding [1] | further results |
| --- | --- | --- |
| FBXL4, exogenous (Fig. 1D) (protein, UniProt Q9UKA2 1-621) MSPVFPMLTVLTMFYYICLRRRARTATRGEMMNTHRAIESNSQTSPLNAEVVQYAKEVVDFSSHYGSENSMSYTMWNLAGVPNVFPSSGDFTQTAVFRTYGTWWDQCPSASLPFKRTPPNFQSQDYVELTFEQQVYPTAVHVLETYHPGAVIRILACSANPYSPNPPAEVRWEILWSERPTKVNASQARQFKPCIKQINFPTNLIRLEVNSSLLEYYTELDAVVLHGVKDKPVLSLKTSLIDMNDIEDDAYAEKDGCGMDSLNKKFSSAVLGEGPNNGYFDKLPYELIQLILNHLTLPDLCRLAQTCKLLSQHCCDPLQYIHLNLQPYWAKLDDTSLEFLQSRCTLVQWLNLSWTGNRGFISVAGFSRFLKVCGSELVRLELSCSHFLNETCLEVISEMCPNLQALNLSSCDKLPPQAFNHIAKLCSLKRLVLYRTKVEQTALLSILNFCSELQHLSLGSCVMIEDYDVIASMIGAKCKKLRTLDLWRCKNITENGIAELASGCPLLEELDLGWCPTLQSSTGCFTRLAHQLPNLQKLFLTANRSVCDTDIDELACNCTRLQQLDILGTRMVSPASLRKLLESCKDLSLLDVSFCSQIDNRAVLELNASFPKVFIKKSFTQ | binds |  |
| PPTC7, endogenous (protein, UniProt Q8NI37 69-304) RSADVLGVADGVGGWRDYGVDPSQFSGTLMRTCERLVKEGRFVPSNPIGILTTSYCELLQNKVPLLGSSTACIVVLDRTSHRLHTANLGDSGFLVVRGGEVVHRSDEQQHYFNTPFQLSIAPPEAEGVVLSDSPDAADSTSFDVQLGDIILTATDGLFDNMPDYMILQELKKLKNSNYESIQQTARSIAEQAHELAYDPNYMSPFAQFACDNGLNVRGGKPDDITVLLSIVAEYTD |  | binding [2]: binds |
| FBXL4, endogenous (protein, UniProt Q9UKA2 1-621) MSPVFPMLTVLTMFYYICLRRRARTATRGEMMNTHRAIESNSQTSPLNAEVVQYAKEVVDFSSHYGSENSMSYTMWNLAGVPNVFPSSGDFTQTAVFRTYGTWWDQCPSASLPFKRTPPNFQSQDYVELTFEQQVYPTAVHVLETYHPGAVIRILACSANPYSPNPPAEVRWEILWSERPTKVNASQARQFKPCIKQINFPTNLIRLEVNSSLLEYYTELDAVVLHGVKDKPVLSLKTSLIDMNDIEDDAYAEKDGCGMDSLNKKFSSAVLGEGPNNGYFDKLPYELIQLILNHLTLPDLCRLAQTCKLLSQHCCDPLQYIHLNLQPYWAKLDDTSLEFLQSRCTLVQWLNLSWTGNRGFISVAGFSRFLKVCGSELVRLELSCSHFLNETCLEVISEMCPNLQALNLSSCDKLPPQAFNHIAKLCSLKRLVLYRTKVEQTALLSILNFCSELQHLSLGSCVMIEDYDVIASMIGAKCKKLRTLDLWRCKNITENGIAELASGCPLLEELDLGWCPTLQSSTGCFTRLAHQLPNLQKLFLTANRSVCDTDIDELACNCTRLQQLDILGTRMVSPASLRKLLESCKDLSLLDVSFCSQIDNRAVLELNASFPKVFIKKSFTQ |  | binding [3]: binds |
| NIPSNAP1 (protein, UniProt Q9BPW8 36-284) SKDNEGSWFRSLFVHKVDPRKDAHSTLLSKKETSNLYKIQFHNVKPEYLDAYNSLTEAVLPKLHLDEDYPCSLVGNWNTWYGEQDQAVHLWRFSGGYPALMDCMNKLKNNKEYLEFRRERSQMLLSRRNQLLLEFSFWNEPQPRMGPNIYELRTYKLKPGTMIEWGNNWARAIKYRQENQEAVGGFFSQIGELYVVHHLWAYKDLQSREETRNAAWRKRGWDENVYYTVPLVRHMESRIMIPLKISPLQ | no binding |  |
